This note sets out measurements from paper PMC11723922.

Assay [1] has as its target eGFP-TGM1 fusion (TGM1 D1-5) (Heligmosomoides polygyrus). The experiment in a line: co-IP; GFP-TRAP beads on lysates (10 mM Tris-HCl pH 7.5, 150 mM NaCl, 0.5 mM EDTA, 0.5% NP-40) of MFB-F11 or RAW264.7 cells transfected with eGFP-TGM fusions; 1 h at 4 °C; western blot for endogenous TβRI, TβRII, CD44. A general note: Immunoblotting shows a protein as a band on a membrane.

In assay [2] the target is eGFP-TGM4 fusion, full length (TGM4 D1-5) (Heligmosomoides polygyrus). The assay is described as above.

No constants are given. Whether binding was seen depends on the method and setting. Binding seen in cells or lysates may run through a third protein. Binding calls can cover weak binding; strength is not graded here.

B1: CD44, endogenous mouse (receptor, UniProt P15379 23-778)
chain: QIDLNVTCRYAGVFHVEKNGRYSISRTEAADLCQAFNSTLPTMDQMKLALSKGFETCRYGFIEGNVVIPRIHPNAICAANHTGVYILVTSNTSHYDTYCFNASAPPEEDCTSVTDLPNSFDGPVTITIVNRDGTRYSKKGEYRTHQEDIDASNIIDDDVSSGSTIEKSTPEGYILHTYLPTEQPTGDQDDSFFIRSTLATIASTVHSKSHAAAQKQNNWIWSWFGNSQSTTQTQEPTTSATTALMTTPETPPKRQEAQNWFSWLFQPSESKSHLHTTTKMPGTESNTNPTGWEPNEENEDETDTYPSFSGSGIDDDEDFISSTIATTPRVSARTEDNQDWTQWKPNHSNPEVLLQTTTRMADIDRISTSAHGENWTPEPQPPFNNHEYQDEEETPHATSTTPNSTAEAAATQQETWFQNGWQGKNPPTPSEDSHVTEGTTASAHNNHPSQRITTQSQEDVSWTDFFDPISHPMGQGHQTESKDTDSSHSTTLQPTAAPNTHLVEDLNRTGPLSVTTPQSHSQNFSTLHGEPEEDENYPTTSILPSSTKSSAKDARRGGSLPTDTTTSVEGYTFQYPDTMENGTLFPVTPAKTEVFGETEVTLATDSNVNVDGSLPGDRDSSKDSRGSSRTVTHGSELAGHSSANQDSGVTTTSGPMRRPQIPEWLIILASLLALALILAVCIAVNSRRRCGQKKKLVINGGNGTVEDRKPSELNGEASKSQEMVHLVNKEPSETPDQCMTADETRNLQSVDMKIGV
As for B1, the binding entry in assay [1] and in assay [2] was “binds” in each case.
